Among the data in paper PMC6179184, “Interaction of the Warsaw breakage syndrome DNA helicase DDX11 with the replication fork-protection factor Timeless promotes sister chromatid cohesion” (PLoS Genetics, 2018) are binding values, retold here.

The chains behind the UniProt entries cited, without tags or fusion partners.
UniProt Q9UNS1: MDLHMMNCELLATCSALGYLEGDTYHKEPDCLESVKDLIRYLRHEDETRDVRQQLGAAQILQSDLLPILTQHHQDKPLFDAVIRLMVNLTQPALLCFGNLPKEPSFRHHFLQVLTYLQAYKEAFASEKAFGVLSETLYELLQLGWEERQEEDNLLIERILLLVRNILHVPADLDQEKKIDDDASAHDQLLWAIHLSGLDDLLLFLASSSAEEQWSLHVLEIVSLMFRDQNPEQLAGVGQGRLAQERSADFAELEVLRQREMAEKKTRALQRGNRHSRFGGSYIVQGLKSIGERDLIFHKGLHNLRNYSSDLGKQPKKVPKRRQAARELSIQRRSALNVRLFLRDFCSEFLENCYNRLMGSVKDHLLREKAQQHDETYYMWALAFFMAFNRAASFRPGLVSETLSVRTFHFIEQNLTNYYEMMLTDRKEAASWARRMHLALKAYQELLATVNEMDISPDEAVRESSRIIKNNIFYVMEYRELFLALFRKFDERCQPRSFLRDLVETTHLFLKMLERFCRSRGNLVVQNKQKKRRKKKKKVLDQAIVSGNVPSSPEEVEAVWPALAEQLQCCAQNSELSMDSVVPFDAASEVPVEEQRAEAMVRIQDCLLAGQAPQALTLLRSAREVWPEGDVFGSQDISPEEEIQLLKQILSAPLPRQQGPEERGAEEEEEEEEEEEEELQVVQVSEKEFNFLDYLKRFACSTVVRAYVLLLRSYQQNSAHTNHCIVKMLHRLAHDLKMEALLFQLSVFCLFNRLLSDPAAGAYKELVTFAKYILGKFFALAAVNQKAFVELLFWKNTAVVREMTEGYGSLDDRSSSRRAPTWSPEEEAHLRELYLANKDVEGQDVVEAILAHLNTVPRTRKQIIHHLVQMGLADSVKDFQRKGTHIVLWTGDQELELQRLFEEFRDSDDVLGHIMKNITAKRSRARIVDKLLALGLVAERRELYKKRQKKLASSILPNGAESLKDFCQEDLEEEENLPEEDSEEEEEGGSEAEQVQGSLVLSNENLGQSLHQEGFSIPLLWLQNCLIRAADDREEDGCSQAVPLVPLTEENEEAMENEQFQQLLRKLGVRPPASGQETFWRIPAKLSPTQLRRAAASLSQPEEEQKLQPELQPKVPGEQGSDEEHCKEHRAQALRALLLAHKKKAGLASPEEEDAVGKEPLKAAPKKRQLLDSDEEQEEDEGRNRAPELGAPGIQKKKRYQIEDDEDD

Assay [1] concerns the target T1, DDX11-3xFlag KAK mutant (human) (UniProt Q96FC9).
T1 sequence: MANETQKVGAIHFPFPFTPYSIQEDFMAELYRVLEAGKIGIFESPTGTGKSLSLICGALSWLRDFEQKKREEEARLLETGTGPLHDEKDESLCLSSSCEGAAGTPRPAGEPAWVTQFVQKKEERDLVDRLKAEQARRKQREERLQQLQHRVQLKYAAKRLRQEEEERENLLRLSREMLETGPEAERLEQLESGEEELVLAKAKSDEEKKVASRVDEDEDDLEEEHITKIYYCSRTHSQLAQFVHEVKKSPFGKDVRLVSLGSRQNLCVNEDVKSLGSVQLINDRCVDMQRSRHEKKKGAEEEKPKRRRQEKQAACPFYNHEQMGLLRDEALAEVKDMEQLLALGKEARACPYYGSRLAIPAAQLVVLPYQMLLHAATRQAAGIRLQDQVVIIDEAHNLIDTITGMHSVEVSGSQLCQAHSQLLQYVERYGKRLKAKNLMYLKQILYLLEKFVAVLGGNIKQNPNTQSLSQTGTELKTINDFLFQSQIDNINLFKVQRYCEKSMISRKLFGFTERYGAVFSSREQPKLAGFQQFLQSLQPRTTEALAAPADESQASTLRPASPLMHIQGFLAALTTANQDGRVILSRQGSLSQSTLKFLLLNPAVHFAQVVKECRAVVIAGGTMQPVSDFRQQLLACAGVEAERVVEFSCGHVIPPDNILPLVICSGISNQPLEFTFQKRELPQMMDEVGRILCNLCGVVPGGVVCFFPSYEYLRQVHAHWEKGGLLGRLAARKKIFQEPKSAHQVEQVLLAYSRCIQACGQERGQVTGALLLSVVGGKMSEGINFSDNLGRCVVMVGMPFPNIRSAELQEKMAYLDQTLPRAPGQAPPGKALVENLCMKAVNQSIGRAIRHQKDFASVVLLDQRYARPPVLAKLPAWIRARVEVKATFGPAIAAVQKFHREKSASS
Briefly: pull-down; mixtures of purified recombinant proteins (Timeless 0.8 ug or cohesin 1 ug, DDX11 0.5 ug, 200 uL) with anti-DDX11 antibody on Protein A beads; 25 mM Tris-HCl pH 7.5, 150 mM NaCl, 2 mM MgCl2, 1 mM DTT, 5% glycerol, 2 hr at 4 C; washes with 300 mM NaCl, 0.25% Triton X-100; immuno-blot; both purified.

Assay [2] has as its target T2, DDX11 Peptide # 32 with Tyr202 substituted with lysine (human) (UniProt Q96FC9).
T2 sequence (peptide): EQLESGEEELVLAEK
Briefly: peptide or protein array; PEPperCHIP microarrays of 15-residue DDX11 peptides on glass slides (tiling array, 13-residue overlap; full substitution scan of peptide # 32); Flag-Timeless at 50 ug/mL in PBS, 0.05% Tween 20, 1% BSA for 16 hr; detected with Cy3-labelled anti-Flag antibody; control array without Flag-Timeless; both purified.

The target of assay [3] is T3, DDX11 Peptide # 32 with Glu201 substituted with lysine (human) (UniProt Q96FC9).
T3 sequence (peptide): EQLESGEEELVLAKY
Described as above.

Assay [4] has as its target T4, endogenous Cdc45 (HeLa nuclear fraction) (human (endogenous in HeLa)) (UniProt O75419).
T4 sequence: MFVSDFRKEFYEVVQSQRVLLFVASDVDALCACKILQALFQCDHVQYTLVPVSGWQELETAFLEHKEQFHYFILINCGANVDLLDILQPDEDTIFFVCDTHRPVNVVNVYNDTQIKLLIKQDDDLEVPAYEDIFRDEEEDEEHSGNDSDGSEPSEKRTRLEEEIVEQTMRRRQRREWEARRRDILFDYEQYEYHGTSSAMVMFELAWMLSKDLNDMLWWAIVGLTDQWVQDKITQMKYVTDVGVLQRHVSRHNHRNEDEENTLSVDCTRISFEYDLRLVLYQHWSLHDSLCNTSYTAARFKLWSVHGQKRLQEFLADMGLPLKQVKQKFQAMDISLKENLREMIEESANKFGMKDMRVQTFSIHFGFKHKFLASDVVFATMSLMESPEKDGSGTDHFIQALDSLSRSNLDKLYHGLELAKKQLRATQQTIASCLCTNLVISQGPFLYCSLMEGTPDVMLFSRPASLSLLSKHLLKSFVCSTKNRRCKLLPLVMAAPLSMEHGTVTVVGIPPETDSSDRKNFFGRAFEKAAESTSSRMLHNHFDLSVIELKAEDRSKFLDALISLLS
Kind of assay: co-IP; nuclear fraction (sonicated, micrococcal nuclease treated) of S phase control (C1) and DDX11-depleted (5-5) HeLa cells; anti-Cdc45 rabbit IgG or control IgG on Protein A Sepharose; 10 mM Hepes-NaOH pH 7.9, 50 mM NaCl, 1 mM DTT, 0.1% Triton X-100, 4 C; Western blot.

No constants are given. Whether binding was seen depends on the method and setting. For some assays here: Binding seen in cells or lysates may run through a third protein. Some binding calls cover weakened binding; strength is not graded here. For some assays here: Sequences can lack the tags named with a protein.

For the molecule “recombinant human Flag-Timeless (from UniProt Q9UNS1 1-1208)”, the figures for the binding result in assay [1], in assay [2] and in assay [3] were “binds weakly”, “no binding (tested: 50 ug/mL Flag-Timeless)” and “no binding (tested: 50 ug/mL Flag-Timeless)”, respectively.

On to “endogenous Timeless (HeLa nuclear fraction) (from UniProt Q9UNS1 1-1208)”, for which the binding entry in assay [4] is given as “binds”.

B1: endogenous DDX11 (HeLa nuclear fraction) (enzyme, UniProt Q96FC9 1-970)
chain: MANETQKVGAIHFPFPFTPYSIQEDFMAELYRVLEAGKIGIFESPTGTGKSLSLICGALSWLRDFEQKKREEEARLLETGTGPLHDEKDESLCLSSSCEGAAGTPRPAGEPAWVTQFVQKKEERDLVDRLKAEQARRKQREERLQQLQHRVQLKYAAKRLRQEEEERENLLRLSREMLETGPEAERLEQLESGEEELVLAEYESDEEKKVASRVDEDEDDLEEEHITKIYYCSRTHSQLAQFVHEVKKSPFGKDVRLVSLGSRQNLCVNEDVKSLGSVQLINDRCVDMQRSRHEKKKGAEEEKPKRRRQEKQAACPFYNHEQMGLLRDEALAEVKDMEQLLALGKEARACPYYGSRLAIPAAQLVVLPYQMLLHAATRQAAGIRLQDQVVIIDEAHNLIDTITGMHSVEVSGSQLCQAHSQLLQYVERYGKRLKAKNLMYLKQILYLLEKFVAVLGGNIKQNPNTQSLSQTGTELKTINDFLFQSQIDNINLFKVQRYCEKSMISRKLFGFTERYGAVFSSREQPKLAGFQQFLQSLQPRTTEALAAPADESQASTLRPASPLMHIQGFLAALTTANQDGRVILSRQGSLSQSTLKFLLLNPAVHFAQVVKECRAVVIAGGTMQPVSDFRQQLLACAGVEAERVVEFSCGHVIPPDNILPLVICSGISNQPLEFTFQKRELPQMMDEVGRILCNLCGVVPGGVVCFFPSYEYLRQVHAHWEKGGLLGRLAARKKIFQEPKSAHQVEQVLLAYSRCIQACGQERGQVTGALLLSVVGGKMSEGINFSDNLGRCVVMVGMPFPNIRSAELQEKMAYLDQTLSPRPGTPREGSGGEPVHEGRQPVHRQGHQAPEGFCQRSAPGPAICPAPCPGQAAGLDPSPCGGQSYLWPRHCCCAEVSPGEVGLFLMGNHTTAWRRALPLSCPLETVFVVGVVCGDPVTKVKPRRRVWSPECCQDPGTGVSSRRRKWGNPE
With B1, the binding entry in assay [4] is on record as “binds”.
